Laboratory results: paper PMC7817177 (eLife, 2021)
These are yes or no findings as the source states them, for the method shown. Some entries that bind do so weakly or less than the wild type.

Amino acid sequences for entries named in this document (tags omitted).
UniProt P36405: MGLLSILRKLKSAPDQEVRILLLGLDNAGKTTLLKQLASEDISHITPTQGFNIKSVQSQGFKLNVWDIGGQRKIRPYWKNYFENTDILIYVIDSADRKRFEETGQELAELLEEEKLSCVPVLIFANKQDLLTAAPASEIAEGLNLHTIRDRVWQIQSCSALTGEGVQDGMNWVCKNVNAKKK

Target: ADP-ribosylation factor-like 3 (ARL3), full length (human) (UniProt P36405)
Assay: SPR; Biacore 8K, CM5 chip with GST capture kit; GST-BART immobilised (about 100 units); 640 nM ARL3GppNHp injected for 120 s, then nine injections of buffer or 2 µM PDEδ; 25°C, 30 µL/min; 20 mM Tris pH 7.5, 150 mM NaCl, 5 mM MgCl2, 0.02% triton X-100, 2 mM DTT; both purified

binding: binds
Substance: phosphodiesterase six subunit δ (PDEδ), full length (from UniProt O43924 1-150)
